This is one part of the list.
Legend:
Assay in all cases: NMR binding call after quantification (hit when 2 of 3 NMR criteria are met) (binary (1 = binding, 0 = not binding)); higher = binding
Details in all cases: RNA concentration 10 µM; fragment concentration 200 µM; 293 K
SARS-CoV-2 3'-UTR RNA = system: SARS-CoV-2 3'-UTR RNA
SARS-CoV-2 3_SL1 RNA = system: SARS-CoV-2 3_SL1 RNA
SARS-CoV-2 3_SL1+2 RNA = system: SARS-CoV-2 3_SL1+2 RNA
SARS-CoV-2 3_SL2 RNA = system: SARS-CoV-2 3_SL2 RNA
SARS-CoV-2 3_SL3base RNA = system: SARS-CoV-2 3_SL3base RNA
SARS-CoV-2 3_s2m RNA = system: SARS-CoV-2 3_s2m RNA

| SMILES | NMR binding call (SARS-CoV-2 3'-UTR RNA) | NMR binding call (SARS-CoV-2 3_SL1 RNA) | NMR binding call (SARS-CoV-2 3_SL1+2 RNA) | NMR binding call (SARS-CoV-2 3_SL2 RNA) | NMR binding call (SARS-CoV-2 3_SL3base RNA) | NMR binding call (SARS-CoV-2 3_s2m RNA) |
| --- | --- | --- | --- | --- | --- | --- |
| Cc1cc(C2CCCN2S(C)(=O)=O)no1 (stereo not given) | 0 | 0 | 0 | 0 | 0 | 0 |
| CNC(=O)C1CCCc2sc(C)nc21 (stereo not given) | 0 | 0 | 0 | 0 | 0 | 0 |
| Cn1c(CNC2CCCCC2)nc2ccccc21 | 0 | 0 | 0 | 0 | 0 | 0 |
| Nc1ccc(S(=O)(=O)Nc2ccccc2)cc1 | 0 | 0 | 0 | 0 | 0 | 0 |
| Cc1nnc(CN2CCC=C(F)C2)s1 | 0 | 0 | 0 | 0 | 0 | 0 |
| Cc1csc(CNC(=O)C2CCC2)n1 | 0 | 0 | 0 | 0 | 0 | 0 |
| Cl.Cl.c1cn(CC2CCCCN2)nn1 (stereo not given) | 0 | 0 | 0 | 0 | 0 | 0 |
| O=C(CN1CCCC1)Nc1ccc(F)cc1 | 0 | 0 | 0 | 0 | 0 | 0 |
| CCOC(=O)c1ccc(F)cc1F | 0 | 0 | 0 | 0 | 0 | 0 |
| O=C(NCC1CCCO1)N1CCOCC1 (stereo not given) | 0 | 0 | 0 | 0 | 0 | 0 |
| CC(NS(C)(=O)=O)c1ccccc1Cl (stereo not given) | 0 | 0 | 0 | 0 | 0 | 0 |
| CCC(=O)Nc1ccc(N2CCC(C)CC2)cc1 | 0 | 0 | 0 | 0 | 0 | 0 |
| CC(=O)c1cccc(NC(=O)N2CCOCC2)c1 | 0 | 0 | 0 | 0 | 0 | 0 |
| CC(C)CNC(=O)c1ccc2ccccc2c1 | 0 | 0 | 0 | 0 | 0 | 0 |
| Cl.NC(=O)c1ccc2c(c1)CCN2 | 0 | 0 | 0 | 0 | 0 | 0 |
| CC(C)(N)CN1CCCC1 | 0 | 0 | 0 | 0 | 0 | 0 |
| OC1CCN(Cc2ccsc2)CC1 | 0 | 0 | 0 | 0 | 0 | 0 |
| CNCCC1CCCCC1 | 0 | 0 | 0 | 0 | 0 | 0 |
| O=C(Nc1ccc2[nH]c(=O)[nH]c2c1)c1ccco1 | 1 | 0 | 0 | 0 | 1 | 0 |
| Cc1nc(CN2CCC(CN)CC2)cs1 | 0 | 0 | 0 | 0 | 0 | 0 |

Two compounds picked at random from those above:

| SMILES | NMR binding call (SARS-CoV-2 3'-UTR RNA) | NMR binding call (SARS-CoV-2 3_SL1 RNA) | NMR binding call (SARS-CoV-2 3_SL1+2 RNA) | NMR binding call (SARS-CoV-2 3_SL2 RNA) | NMR binding call (SARS-CoV-2 3_SL3base RNA) | NMR binding call (SARS-CoV-2 3_s2m RNA) |
| --- | --- | --- | --- | --- | --- | --- |
| O=C(NCC1CCCO1)N1CCOCC1 (stereo not given) | 0 | 0 | 0 | 0 | 0 | 0 |
| O=C(Nc1ccc2[nH]c(=O)[nH]c2c1)c1ccco1 | 1 | 0 | 0 | 0 | 1 | 0 |

Later entries.

| SMILES | NMR binding call (SARS-CoV-2 3'-UTR RNA) | NMR binding call (SARS-CoV-2 3_SL1 RNA) | NMR binding call (SARS-CoV-2 3_SL1+2 RNA) | NMR binding call (SARS-CoV-2 3_SL2 RNA) | NMR binding call (SARS-CoV-2 3_SL3base RNA) | NMR binding call (SARS-CoV-2 3_s2m RNA) |
| --- | --- | --- | --- | --- | --- | --- |
| O=C(Nc1ccc(N2CCOCC2)cc1)C1CC1 | 0 | 0 | 0 | 0 | 0 | 0 |
| CNCc1ccc(C(F)(F)F)cc1 | 0 | 0 | 1 | 0 | 1 | 0 |
| Cc1[nH][nH]c(=O)c1CCO | 0 | 0 | 0 | 0 | 0 | 0 |
| CNS(=O)(=O)CC1CCCCC1 | 0 | 0 | 0 | 0 | 0 | 0 |
| Cc1noc(NC(=O)CC2CCCC2)n1 | 0 | 0 | 0 | 0 | 0 | 0 |
| CC(CS(N)(=O)=O)c1ccccc1 (stereo not given) | 0 | 0 | 0 | 0 | 0 | 0 |
| CCC(=O)Nc1ccc2[nH]c(=O)[nH]c2c1 | 0 | 0 | 0 | 0 | 0 | 0 |
| Nc1cc(C(F)(F)F)ccc1N1CCCCC1 | 0 | 0 | 0 | 0 | 0 | 0 |
| CC(C)(C(N)=O)c1ccccc1 | 0 | 0 | 0 | 0 | 0 | 0 |
| Fc1ccc(NC2CCOCC2)nc1 | 0 | 0 | 0 | 0 | 0 | 0 |
| CCS(=O)(=O)Nc1ccccc1F | 0 | 0 | 0 | 0 | 0 | 0 |
| Cc1n[nH]c(C)c1-c1ccccc1N | 0 | 0 | 0 | 0 | 0 | 0 |
| NC(=O)c1ccc(NC(=O)C2CCCO2)cc1 (stereo not given) | 0 | 0 | 0 | 0 | 0 | 0 |
| COC(C)c1nc(-c2cnoc2C)cs1 (stereo not given) | 0 | 0 | 0 | 0 | 0 | 0 |
| CC(C)(O)CNC1CCOCC1 | 0 | 0 | 0 | 0 | 0 | 0 |
| COc1ccc(CCC2(C)NC(=O)NC2=O)cc1 (stereo not given) | 0 | 0 | 0 | 0 | 0 | 0 |
| CCN1N=C(C(F)(F)F)CC1=O | 0 | 0 | 0 | 0 | 0 | 0 |
| CC1CCC(NC2CCC(O)CC2)CC1 (stereo not given) | 0 | 0 | 0 | 0 | 0 | 0 |
| CNCc1cccc(OC)n1 | 0 | 0 | 0 | 0 | 0 | 0 |
| Cc1ccc(OCC(=O)N2CCOCC2)c(C)c1 | 0 | 0 | 0 | 0 | 0 | 0 |

| SMILES | NMR binding call (SARS-CoV-2 3'-UTR RNA) | NMR binding call (SARS-CoV-2 3_SL1 RNA) | NMR binding call (SARS-CoV-2 3_SL1+2 RNA) | NMR binding call (SARS-CoV-2 3_SL2 RNA) | NMR binding call (SARS-CoV-2 3_SL3base RNA) | NMR binding call (SARS-CoV-2 3_s2m RNA) |
| --- | --- | --- | --- | --- | --- | --- |
| CCOc1ccc(C(C)N)cc1.Cl (stereo not given) | 0 | 0 | 0 | 0 | 0 | 0 |
| CC(=O)Nc1ccc(F)c(C(=O)O)c1 | 0 | 0 | 0 | 0 | 0 | 0 |
| Fc1ccccc1NCc1cc[nH]n1 | 0 | 0 | 0 | 0 | 0 | 0 |
| CNC(=O)C1CNCCO1 (stereo not given) | 0 | 0 | 0 | 0 | 0 | 0 |
| Cc1cccc(CN2CCOCC2)c1 | 0 | 0 | 0 | 0 | 0 | 0 |
| Cc1cncc(NCc2ccncc2)c1 | 0 | 0 | 0 | 0 | 0 | 0 |
| Cc1noc(CN2CCC(CO)CC2)n1 | 0 | 0 | 0 | 0 | 0 | 0 |
| CC(C)c1nnc(NCC(C)(C)C)s1 | 0 | 0 | 0 | 0 | 0 | 0 |
| CCC(=O)Nc1nnc(C2CCCCC2)s1 | 0 | 0 | 0 | 0 | 0 | 0 |
| NC(=O)c1ccc(OCc2ccccc2)cc1 | 0 | 0 | 0 | 0 | 0 | 0 |
| CC(C)NC(=O)N(C)Cc1cnn(C)c1 | 0 | 0 | 0 | 0 | 0 | 0 |
| O=S1(=O)CCCN1Cc1cccc(F)c1 | 0 | 0 | 0 | 0 | 0 | 0 |
| Cn1cc(C(=O)O)c(-c2ccncc2)n1 | 0 | 0 | 0 | 0 | 0 | 0 |
| CCC(=O)Nc1nc(C)cs1 | 0 | 0 | 0 | 0 | 0 | 0 |
| CNCC1COc2ccccc2O1 (stereo not given) | 0 | 0 | 0 | 0 | 0 | 0 |
| C1CCC(NCC2CCCO2)C1 (stereo not given) | 0 | 0 | 0 | 0 | 0 | 0 |
| Fc1ccc(Cn2cnc3ccccc32)cc1 | 0 | 0 | 0 | 0 | 0 | 0 |
| Cc1cccc(NC(=O)CN2CCOCC2)c1C | 0 | 0 | 0 | 0 | 0 | 0 |
| CC(=O)Nc1cccc(F)c1C(=O)O | 0 | 0 | 0 | 0 | 0 | 0 |
| CC(=O)N(C)c1ccccc1C(=O)O | 0 | 0 | 0 | 0 | 0 | 0 |

Only NMR binding call (SARS-CoV-2 3_s2m RNA), for some of the entries so far:
SMILES	NMR binding call (SARS-CoV-2 3_s2m RNA)
Cc1nc(CN2CCC(CN)CC2)cs1	0
COc1ccc(CCC2(C)NC(=O)NC2=O)cc1 (stereo not given)	0
Fc1ccccc1NCc1cc[nH]n1	0
Cc1cccc(NC(=O)CN2CCOCC2)c1C	0

Source: the supplement of paper PMC8426693
